# From PubChem BioAssay AID445 (National Center for Advancing Translational Sciences (NCATS), 2006)
# Some of the results follow. Shown are side measurements of this screen, not its main read-out; they come without a call. Most of these compounds were active or inconclusive in the main read-out, so they are no random draw. Words in brackets tell the shape of the fitted curve; partial curves, single points and poor fits give uncertain potencies.
# Test: IkB Signaling
# Details: ABC-DLBCL IkBa-CBG/CBR dual luciferase ratio (green luciferase fused to IkBa over red control in OCI-Ly3 lymphoma cells), 4 h; measured here: control luc red channel unless noted
# Summary of the method: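 Luminescence ratio of IκBα-fused green versus native red beetle luciferase in OCI-Ly3 cells, 4 h post-doxycycline with compound; red signal alone, scaled from basal (0%) to zero light (-100%), flagged nonspecific or cytotoxic effects.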
row,Compound,AC50
1,O=C(c1cnn2c1NC(c1ccco1)CC2C(F)(F)F)N1CCN(c2cccc(Cl)c2)CC1 (stereo not drawn),"10 µM [falling, partial curve]"
2,CCOc1ccc(N(CC(=O)Nc2ccc3c(c2)OCCO3)S(=O)(=O)c2c(C)noc2C)cc1,"10 µM [falling, partial curve]"
3,Cn1cnc2c(NCc3ccccc3)nc(NCCO)nc21,"39.8 µM [falling, partial curve, poor fit]"
4,Cc1cccc(CSc2nc3c(c(=O)[nH]2)CCC3)c1,"0.2 µM [falling, full curve]"
5,CCc1ccc(C2CC(=O)c3c([nH]c(C(=O)OC4CCC(C)CC4)c3C)C2)cc1 (stereo not drawn),"0.2 µM [rising, full curve, poor fit]"
6,COc1ccc(S(=O)(=O)NCc2cccn2Cc2cccc(C)c2)cc1Cl,"39.8 µM [falling, single point]"
7,COc1cccc(C(=O)Nc2ccc(NC(=O)C3CC3)cn2)c1,"12.6 µM [falling, partial curve]"
8,CCS(=O)(=O)N1CCc2cc(C(=O)N3CCN(c4ccc(OC)cc4)CC3)ccc21,"12.6 µM [falling, partial curve]"
9,COc1ccc(OC)c(S(=O)(=O)N2Cc3ccccc3CC2C(=O)Nc2ccc(C)cc2C)c1 (stereo not drawn),"25.1 µM [falling, single point]"
10,COc1ccc(-c2nc(SCC(=O)Nc3ccccc3)c(-c3ccc(F)cc3)[nH]2)cc1OC,"12.6 µM [falling, partial curve]"
11,COC(=O)c1ccc(CSc2nc3c([nH]c4ccccc43)c(=O)n2-c2ccc(F)cc2)o1,"25.1 µM [rising, single point]"
12,CCc1cccc(NC(=O)Cn2c(=O)n(-c3ccccc3C)c(=O)c3c2c2cc(C)ccc2n3C)c1,"1.26 µM [falling, full curve]"
13,Cc1ccc(Cl)cc1-n1c(CCC(=O)O)ccc1-c1cccs1,"5.01 µM [falling, partial curve]"
14,Cc1ccccc1CN1CCc2nc(N3CCN(c4ncccn4)CC3)ncc2C1,"39.8 µM [falling, single point]"
15,Cc1ccc(CNC(=O)c2ccc(CS(=O)(=O)Cc3ccc(F)cc3)o2)cc1,"0.01 µM [rising, full curve]"
16,CCCCc1nn2c(=O)cc(COC(=O)c3cccc(NC(=O)c4cccc(Cl)c4)c3)nc2s1,"2.51 µM [falling, full curve]"
17,COc1ccc(CCCc2nnc(SCC(=O)Nc3cccc(C)c3)o2)cc1C,"7.94 µM [falling, full curve]"
18,Cc1cccc(N2CCN(S(=O)(=O)c3cn(C)c(C)n3)CC2)c1C,"0.794 µM [rising, single point]"
19,CCOc1ccccc1C(=O)Oc1c(S(=O)(=O)c2ccc(C)cc2)c(C)nn1-c1ccccc1,"7.94 µM [falling, full curve]"

row,Compound,AC50
1,COc1ccc(N(C)C(=O)c2nn(-c3ccc(C)cc3)c(=O)n(C)c2=O)c(OC)c1,"0.00501 µM [falling, full curve, poor fit]"
2,Cc1cc(C)cc(NC(=O)N2CCC(C(N)=O)(N3CCCCC3)CC2)c1,"39.8 µM [falling, single point]"
3,COc1cc(C(c2nnnn2C(C)(C)C)N2CCN(c3nc4ccccc4s3)CC2)ccc1O (stereo not drawn),"39.8 µM [rising, single point] [measured here: IkB-luc green channel]"
4,COc1ccc(C(=O)COC(=O)CCn2nnc(-c3cccc(O)c3OC)n2)cc1,"1.26 µM [falling, full curve] [measured here: IkB-luc green channel]"
5,COc1ccc(N2CC(NC(=O)C(=O)c3c[nH]c4ccccc34)CC2=O)cc1 (stereo not drawn),"39.8 µM [falling, single point]"
6,CCN(CC)c1cc(C)c2cc(NC(=O)/C=C/c3ccccc3Cl)ccc2n1,"7.94 µM [falling, partial curve]"
7,COc1ccc(CNC(=O)CC(C)n2nc(C)cc2C)cc1 (stereo not drawn),"0.501 µM [falling, partial curve]"
8,O=C(CCSCc1cccc(Cl)c1)NCc1ccccc1Cl,"15.8 µM [falling, partial curve]"
9,CN1C(=O)c2ccc(NC(=O)c3c(F)c(F)c(F)c(F)c3F)cc2C1=O,"7.94 µM [falling, full curve]"
10,O=c1c(N2CCN(c3ccccc3)CC2)csc2ccc(Cl)cc12,"20 µM [falling, partial curve]"
11,CCOCCn1ccc2c(OCC(=O)NCc3ccc(F)cc3)cccc2c1=O,"6.31 µM [rising, partial curve]"
12,COCCn1c(=O)[nH]c2cc(C(=O)N3CCN(c4ccc(Cl)cc4)CC3)ccc2c1=O,"12.6 µM [falling, partial curve]"
13,Cc1ccc(C)c(N2CCN(C(=O)CCCn3c(=S)[nH]c4cc5c(cc4c3=O)OCO5)CC2)c1,"3.98 µM [falling, full curve, poor fit]"
14,Cc1ccc(CN2CCC(CNC(=O)c3cnn(-c4ccccc4)c3C3CCN(C(=O)OC(C)(C)C)CC3)CC2)cc1,"12.6 µM [falling, partial curve]"
15,COc1ccc(NC(=O)c2oc3ccc(S(=O)(=O)N4CCCCC4)cc3c2C)cc1Cl,"7.94 µM [falling, partial curve]"
16,COc1ccc(NC(=O)c2cc(C(C)=O)n3ccccc23)cc1,"10 µM [rising, partial curve] [measured here: IkB-luc green channel]"
17,N#CC1=C(N)SC(N)=C(C#N)C1c1cccc(Oc2ccccc2)c1,"31.6 µM [rising, partial curve] [measured here: IkB-luc green channel]"
18,CCOc1cc2[nH]c(=O)n(Cc3ccc(C(=O)N4CCN(c5ccccc5)CC4)cc3)c(=O)c2cc1OCC,"25.1 µM [falling, single point]"
19,COc1cc2c(=O)n(Cc3ccco3)c(=O)n(CC(=O)Nc3ccc(F)cc3)c2cc1OC,"12.6 µM [falling, partial curve]"

# An excerpt of these results, with bars between the fields.
row | Compound | AC50
7 | COc1ccc(CNC(=O)CC(C)n2nc(C)cc2C)cc1 (stereo not drawn) | 0.501 µM [falling, partial curve]
8 | O=C(CCSCc1cccc(Cl)c1)NCc1ccccc1Cl | 15.8 µM [falling, partial curve]
